Measurements taken from PMC9974993.
These are yes or no findings as the source states them, for the method shown. In cells and extracts the contact can be indirect. Some binding calls cover weakened binding; strength is not graded here.

Target: HER2, tyrosine-autophosphorylated in BS4-induced aggregates (human (endogenous in SkBr3)) (UniProt P04626)
Assay: co-IP; SkBr3 cells, serum-free 1 h ± lapatinib (HER1/2i) or LY294002 (PI3Ki); BS4 3 ug/ml for 2.5 min; lysis in PBS, 1% NP-40 with protease and phosphatase inhibitors, lysate not clarified; BS4-HER2 aggregates captured on Protein G Dynabeads 2 h at 4 °C, five washes; western blot

binding: binds
B1: VAV2 (protein, UniProt P52735 1-878)
chain: MEQWRQCGRWLIDCKVLPPNHRVVWPSAVVFDLAQALRDGVLLCQLLHNLSPGSIDLKDINFRPQMSQFLCLKNIRTFLKVCHDKFGLRNSELFDPFDLFDVRDFGKVISAVSRLSLHSIAQNKGIRPFPSEETTENDDDVYRSLEELADEHDLGEDIYDCVPCEDGGDDIYEDIIKVEVQQPMIRYMQKMGMTEDDKRNCCLLEIQETEAKYYRTLEDIEKNYMSPLRLVLSPADMAAVFINLEDLIKVHHSFLRAIDVSVMVGGSTLAKVFLDFKERLLIYGEYCSHMEHAQNTLNQLLASREDFRQKVEECTLKVQDGKFKLQDLLVVPMQRVLKYHLLLKELLSHSAERPERQQLKEALEAMQDLAMYINEVKRDKETLRKISEFQSSIENLQVKLEEFGRPKIDGELKVRSIVNHTKQDRYLFLFDKVVIVCKRKGYSYELKEIIELLFHKMTDDPMNNKDVKKSHGKMWSYGFYLIHLQGKQGFQFFCKTEDMKRKWMEQFEMAMSNIKPDKANANHHSFQMYTFDKTTNCKACKMFLRGTFYQGYMCTKCGVGAHKECLEVIPPCKFTSPADLDASGAGPGPKMVAMQNYHGNPAPPGKPVLTFQTGDVLELLRGDPESPWWEGRLVQTRKSGYFPSSSVKPCPVDGRPPISRPPSREIDYTAYPWFAGNMERQQTDNLLKSHASGTYLIRERPAEAERFAISIKFNDEVKHIKVVEKDNWIHITEAKKFDSLLELVEYYQCHSLKESFKQLDTTLKYPYKSRERSASRASSRSPASCASYNFSFLSPQGLSFASQGPSAPFWSVFTPRVIGTAVARYNFAARDMRELSLREGDVVRIYSRIGGDQGWWKGETNGRIGWFPSTYVEEEGIQ
